No constants are given. Whether binding was seen depends on the method and setting. In cells and extracts the contact can be indirect. Binding calls can cover weak binding; strength is not graded here.
Biological target: T1, Calcium-dependent cytosolic phospholipase A2 (mouse (endogenous in immortalized mouse astrocytes)) (UniProt P47713)
T1 sequence: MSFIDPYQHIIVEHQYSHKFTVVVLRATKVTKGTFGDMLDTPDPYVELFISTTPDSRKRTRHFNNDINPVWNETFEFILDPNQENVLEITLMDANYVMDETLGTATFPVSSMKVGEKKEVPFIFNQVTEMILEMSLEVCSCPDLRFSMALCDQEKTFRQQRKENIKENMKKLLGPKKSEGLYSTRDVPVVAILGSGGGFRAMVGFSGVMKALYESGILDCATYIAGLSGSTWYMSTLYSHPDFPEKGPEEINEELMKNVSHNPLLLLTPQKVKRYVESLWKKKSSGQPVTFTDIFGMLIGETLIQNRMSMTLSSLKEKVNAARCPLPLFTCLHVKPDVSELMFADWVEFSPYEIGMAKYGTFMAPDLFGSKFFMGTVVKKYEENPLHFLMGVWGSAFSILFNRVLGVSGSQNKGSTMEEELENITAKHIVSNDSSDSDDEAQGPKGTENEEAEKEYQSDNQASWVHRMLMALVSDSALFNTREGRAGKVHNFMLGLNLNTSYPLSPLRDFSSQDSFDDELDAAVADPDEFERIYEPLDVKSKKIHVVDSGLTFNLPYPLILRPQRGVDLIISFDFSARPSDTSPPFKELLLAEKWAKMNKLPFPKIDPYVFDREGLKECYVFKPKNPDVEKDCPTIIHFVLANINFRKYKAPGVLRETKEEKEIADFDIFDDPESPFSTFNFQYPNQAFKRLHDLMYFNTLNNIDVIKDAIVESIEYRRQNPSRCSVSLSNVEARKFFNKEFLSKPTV
Assay: co-IP; lysate (RIPA with protease and phosphatase inhibitors) of immortalized ApoE4 astrocytes; immunoprecipitation with anti-cPLA2 antibody or species-matched IgG; cPLA2 and p38 detected by Western blot

In the case of p38 MAPK (enzyme), the binding is reported as “binds”.

From PMC9202185
